By UniProt entry, the sequences of proteins in these tests, tags left out. Where a name states a change or a piece, a line headed by the entry shows the natural chain unless it says otherwise. Chains listed by the source or under a name are the forms on record and can include a tag or linker. Residues count along the entry.
F508del-CFTR (P13569, form named): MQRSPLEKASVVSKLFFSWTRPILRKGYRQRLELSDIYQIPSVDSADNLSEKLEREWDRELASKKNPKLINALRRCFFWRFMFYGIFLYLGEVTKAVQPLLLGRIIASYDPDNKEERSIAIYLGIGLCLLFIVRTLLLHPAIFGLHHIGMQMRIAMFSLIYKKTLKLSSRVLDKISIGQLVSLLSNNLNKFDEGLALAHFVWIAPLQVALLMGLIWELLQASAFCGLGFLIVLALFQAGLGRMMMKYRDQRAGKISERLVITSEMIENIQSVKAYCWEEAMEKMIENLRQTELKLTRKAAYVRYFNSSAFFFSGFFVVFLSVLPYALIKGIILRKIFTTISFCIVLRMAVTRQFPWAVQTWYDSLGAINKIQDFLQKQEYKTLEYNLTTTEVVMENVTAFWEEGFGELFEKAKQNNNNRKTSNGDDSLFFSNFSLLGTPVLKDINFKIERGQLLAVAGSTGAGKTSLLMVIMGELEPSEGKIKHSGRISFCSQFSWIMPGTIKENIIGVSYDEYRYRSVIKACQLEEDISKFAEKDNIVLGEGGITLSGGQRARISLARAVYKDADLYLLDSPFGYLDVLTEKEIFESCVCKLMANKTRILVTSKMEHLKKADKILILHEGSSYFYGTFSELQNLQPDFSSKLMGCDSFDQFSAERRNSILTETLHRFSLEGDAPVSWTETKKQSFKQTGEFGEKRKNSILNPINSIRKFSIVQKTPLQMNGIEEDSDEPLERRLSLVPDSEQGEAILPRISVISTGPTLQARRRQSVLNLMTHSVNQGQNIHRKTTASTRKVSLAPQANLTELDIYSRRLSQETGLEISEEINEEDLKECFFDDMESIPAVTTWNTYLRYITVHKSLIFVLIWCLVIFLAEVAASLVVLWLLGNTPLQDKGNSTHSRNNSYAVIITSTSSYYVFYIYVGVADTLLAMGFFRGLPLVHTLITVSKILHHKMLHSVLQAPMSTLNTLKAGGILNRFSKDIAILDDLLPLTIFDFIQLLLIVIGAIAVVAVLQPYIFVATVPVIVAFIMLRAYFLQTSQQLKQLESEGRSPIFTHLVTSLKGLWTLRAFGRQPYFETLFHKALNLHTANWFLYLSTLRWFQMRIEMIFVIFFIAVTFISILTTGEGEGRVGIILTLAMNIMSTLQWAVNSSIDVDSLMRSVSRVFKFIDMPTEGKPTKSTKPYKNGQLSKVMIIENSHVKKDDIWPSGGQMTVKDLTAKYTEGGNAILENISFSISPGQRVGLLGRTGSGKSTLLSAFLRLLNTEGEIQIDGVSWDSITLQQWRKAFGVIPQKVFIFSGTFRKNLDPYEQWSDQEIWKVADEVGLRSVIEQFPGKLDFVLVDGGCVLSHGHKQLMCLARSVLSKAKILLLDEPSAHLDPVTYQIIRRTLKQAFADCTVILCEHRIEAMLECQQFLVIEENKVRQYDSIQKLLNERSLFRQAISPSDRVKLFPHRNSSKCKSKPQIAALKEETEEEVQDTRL
F508del-4RK-CFTR (P13569, form named): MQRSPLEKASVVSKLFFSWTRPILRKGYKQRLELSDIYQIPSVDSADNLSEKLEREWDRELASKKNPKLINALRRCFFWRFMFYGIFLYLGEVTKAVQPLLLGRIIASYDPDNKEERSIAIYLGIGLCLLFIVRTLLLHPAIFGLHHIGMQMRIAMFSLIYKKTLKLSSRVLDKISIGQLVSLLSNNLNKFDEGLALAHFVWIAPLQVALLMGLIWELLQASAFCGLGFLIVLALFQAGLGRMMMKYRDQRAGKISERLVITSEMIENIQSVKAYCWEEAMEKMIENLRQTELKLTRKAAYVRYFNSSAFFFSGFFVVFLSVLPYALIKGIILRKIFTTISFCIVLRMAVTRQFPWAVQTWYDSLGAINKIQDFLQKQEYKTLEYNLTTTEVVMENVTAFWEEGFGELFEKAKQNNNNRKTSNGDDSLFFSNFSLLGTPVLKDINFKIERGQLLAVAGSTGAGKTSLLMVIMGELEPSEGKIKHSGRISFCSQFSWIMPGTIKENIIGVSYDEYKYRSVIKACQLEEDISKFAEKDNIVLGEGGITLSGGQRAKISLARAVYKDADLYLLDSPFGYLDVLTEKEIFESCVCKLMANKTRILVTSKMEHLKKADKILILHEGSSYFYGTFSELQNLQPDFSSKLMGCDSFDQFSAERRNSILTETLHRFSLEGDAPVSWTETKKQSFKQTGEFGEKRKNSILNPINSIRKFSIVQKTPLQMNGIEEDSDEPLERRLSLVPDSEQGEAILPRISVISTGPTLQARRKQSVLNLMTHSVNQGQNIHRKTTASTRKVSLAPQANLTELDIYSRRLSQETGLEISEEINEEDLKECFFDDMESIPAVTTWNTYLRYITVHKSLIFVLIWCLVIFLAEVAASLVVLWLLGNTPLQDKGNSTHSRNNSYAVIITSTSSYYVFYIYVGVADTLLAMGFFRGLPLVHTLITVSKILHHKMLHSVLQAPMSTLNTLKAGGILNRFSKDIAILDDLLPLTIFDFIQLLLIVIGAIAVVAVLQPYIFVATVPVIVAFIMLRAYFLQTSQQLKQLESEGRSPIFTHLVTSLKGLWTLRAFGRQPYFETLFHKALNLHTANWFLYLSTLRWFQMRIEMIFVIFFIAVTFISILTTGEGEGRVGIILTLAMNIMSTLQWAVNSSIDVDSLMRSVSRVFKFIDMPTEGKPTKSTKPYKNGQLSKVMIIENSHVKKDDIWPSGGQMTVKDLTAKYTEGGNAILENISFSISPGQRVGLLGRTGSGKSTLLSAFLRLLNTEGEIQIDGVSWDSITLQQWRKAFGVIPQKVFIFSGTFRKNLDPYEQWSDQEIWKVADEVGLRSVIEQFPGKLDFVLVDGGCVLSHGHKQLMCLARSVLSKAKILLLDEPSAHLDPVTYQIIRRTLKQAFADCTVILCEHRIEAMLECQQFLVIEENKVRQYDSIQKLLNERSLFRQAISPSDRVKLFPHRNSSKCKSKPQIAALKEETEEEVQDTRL
UniProt P27824, residues 21-592: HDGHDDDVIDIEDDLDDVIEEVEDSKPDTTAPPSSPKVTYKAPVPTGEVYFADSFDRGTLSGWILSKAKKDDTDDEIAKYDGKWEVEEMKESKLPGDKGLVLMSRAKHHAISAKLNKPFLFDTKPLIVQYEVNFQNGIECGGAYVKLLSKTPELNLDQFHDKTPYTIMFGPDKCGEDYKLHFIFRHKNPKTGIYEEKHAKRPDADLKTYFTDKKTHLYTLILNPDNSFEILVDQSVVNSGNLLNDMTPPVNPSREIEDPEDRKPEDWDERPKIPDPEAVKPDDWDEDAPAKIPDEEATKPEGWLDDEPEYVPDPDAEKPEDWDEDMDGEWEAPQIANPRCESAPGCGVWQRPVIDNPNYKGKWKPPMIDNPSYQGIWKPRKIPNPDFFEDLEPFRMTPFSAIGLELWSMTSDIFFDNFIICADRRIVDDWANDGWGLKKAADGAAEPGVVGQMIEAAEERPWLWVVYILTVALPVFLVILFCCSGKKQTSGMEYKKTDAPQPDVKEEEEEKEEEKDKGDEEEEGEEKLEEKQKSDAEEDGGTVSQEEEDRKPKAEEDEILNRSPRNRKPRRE
UniProt O14818: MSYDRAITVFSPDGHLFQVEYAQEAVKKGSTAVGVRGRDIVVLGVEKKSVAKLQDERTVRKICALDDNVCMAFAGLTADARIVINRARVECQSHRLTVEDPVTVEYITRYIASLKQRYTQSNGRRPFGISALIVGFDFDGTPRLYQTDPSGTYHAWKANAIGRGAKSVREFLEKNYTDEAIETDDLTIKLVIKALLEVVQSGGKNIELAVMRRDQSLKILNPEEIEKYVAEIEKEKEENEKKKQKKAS
UniProt P11142: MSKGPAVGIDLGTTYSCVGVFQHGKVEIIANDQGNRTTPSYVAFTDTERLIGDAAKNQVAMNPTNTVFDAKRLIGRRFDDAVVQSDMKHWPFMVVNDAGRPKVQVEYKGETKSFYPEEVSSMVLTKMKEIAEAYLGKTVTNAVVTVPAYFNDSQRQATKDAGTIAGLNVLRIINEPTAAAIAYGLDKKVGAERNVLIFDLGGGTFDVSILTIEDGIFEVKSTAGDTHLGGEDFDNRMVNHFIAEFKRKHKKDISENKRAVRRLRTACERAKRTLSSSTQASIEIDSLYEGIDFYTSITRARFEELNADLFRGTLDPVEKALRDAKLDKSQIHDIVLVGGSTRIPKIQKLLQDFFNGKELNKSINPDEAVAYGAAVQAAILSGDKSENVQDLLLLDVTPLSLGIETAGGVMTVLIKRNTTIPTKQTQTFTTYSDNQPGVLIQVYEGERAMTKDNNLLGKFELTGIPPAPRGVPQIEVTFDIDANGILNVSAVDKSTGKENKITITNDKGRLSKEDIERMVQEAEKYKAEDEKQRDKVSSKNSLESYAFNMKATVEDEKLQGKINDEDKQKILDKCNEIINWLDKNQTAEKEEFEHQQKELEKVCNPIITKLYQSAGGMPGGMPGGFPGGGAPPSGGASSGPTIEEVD
UniProt P04792: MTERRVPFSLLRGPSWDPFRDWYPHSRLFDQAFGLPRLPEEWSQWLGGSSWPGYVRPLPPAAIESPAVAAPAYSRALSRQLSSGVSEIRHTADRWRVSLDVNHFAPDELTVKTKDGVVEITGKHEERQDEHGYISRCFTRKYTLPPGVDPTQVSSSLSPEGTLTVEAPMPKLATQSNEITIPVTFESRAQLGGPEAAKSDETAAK
UniProt O60884: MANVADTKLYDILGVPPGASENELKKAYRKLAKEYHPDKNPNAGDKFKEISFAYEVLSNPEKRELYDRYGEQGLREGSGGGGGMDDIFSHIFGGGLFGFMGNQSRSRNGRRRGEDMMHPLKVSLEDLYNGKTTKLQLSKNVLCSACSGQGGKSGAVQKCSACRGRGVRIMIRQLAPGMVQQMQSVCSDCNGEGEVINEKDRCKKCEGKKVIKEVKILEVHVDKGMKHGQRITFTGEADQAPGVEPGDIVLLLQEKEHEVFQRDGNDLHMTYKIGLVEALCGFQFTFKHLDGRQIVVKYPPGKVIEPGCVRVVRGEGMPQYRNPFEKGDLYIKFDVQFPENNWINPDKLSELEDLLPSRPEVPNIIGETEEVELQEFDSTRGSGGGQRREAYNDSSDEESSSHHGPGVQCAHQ

According to PMC6523853:

What was measured:
Assay in all cases: affinity purification with mass spectrometry; full-length CFTR immunoprecipitated with anti-CFTR 596 cross-linked to rProtein G agarose from whole-cell Triton lysates of CFBE41o− cells stably expressing the variant; cells incubated with the cleavable cross-linker DSP prior to lysis; overnight at 4 °C; parental CFBE41o− cells as background; LC-MS/MS, iBAQ
F508del-CFTR [1] = molecular target: F508del-CFTR (UniProt P13569)
F508del-4RK-CFTR [2] = molecular target: F508del-4RK-CFTR (UniProt P13569)
F508del-4RK-CFTR [3] = molecular target: F508del-4RK-CFTR (UniProt P13569); remark: listed apart in the source
F508del-CFTR [4] = molecular target: F508del-CFTR (UniProt P13569); remark: listed apart in the source

With calnexin (from UniProt P27824 21-592) the binding (F508del-CFTR [1]) was “binds”.

For PSMA7 (from UniProt O14818 1-248), the binding (F508del-4RK-CFTR [2]) was “binds”.

For “heat shock cognate 71KDa protein (HSPA8/Hsp73) (from UniProt P11142 1-646)”, the binding (F508del-CFTR [1]) was “binds”.

HspB1 (from UniProt P04792 1-205) was tested, and the binding (F508del-4RK-CFTR [2]) was “binds” and the binding (F508del-CFTR [1]) was “binds”.

In the case of DNAJA2 (from UniProt O60884 1-412), the binding (F508del-CFTR [1]) is reported as “binds”.

B1: ERP44 (endoplasmic reticulum resident protein 44) (protein, UniProt Q9BS26 30-406)
chain: EITSLDTENIDEILNNADVALVNFYADWCRFSQMLHPIFEEASDVIKEEFPNENQVVFARVDCDQHSDIAQRYRISKYPTLKLFRNGMMMKREYRGQRSVKALADYIRQQKSDPIQEIRDLAEITTLDRSKRNIIGYFEQKDSDNYRVFERVANILHDDCAFLSAFGDVSKPERYSGDNIIYKPPGHSAPDMVYLGAMTNFDVTYNWIQDKCVPLVREITFENGEELTEEGLPFLILFHMKEDTESLEIFQNEVARQLISEKGTINFLHADCDKFRHPLLHIQKTPADCPVIAIDSFRHMYVFGDFKDVLIPGKLKQFVFDLHSGKLHREFHHGPDPTDTAPGEQAQDVASSPPESSFQKLAPSEYRYTLLRDRDEL
For B1, the binding (F508del-4RK-CFTR [3]) was “binds” and the binding (F508del-CFTR [4]) was “binds”.

B2: DNAJC8 (protein, UniProt O75937 1-253)
chain: MAASGESGTSGGGGSTEEAFMTFYSEVKQIEKRDSVLTSKNQIERLTRPGSSYFNLNPFEVLQIDPEVTDEEIKKRFRQLSILVHPDKNQDDADRAQKAFEAVDKAYKLLLDQEQKKRALDVIQAGKEYVEHTVKERKKQLKKEGKPTIVEEDDPELFKQAVYKQTMKLFAELEIKRKEREAKEMHERKRQREEEIEAQEKAKREREWQKNFEESRDGRVDSWRNFQANTKGKKEKKNRTFLRPPKVKMEQRE
B2 was tested, and the binding (F508del-CFTR [4]) was “binds”.

B3: RFN14 (protein, UniProt Q9UBS8 1-474)
chain: MSSEDREAQEDELLALASIYDGDEFRKAESVQGGETRIYLDLPQNFKIFVSGNSNECLQNSGFEYTICFLPPLVLNFELPPDYPSSSPPSFTLSGKWLSPTQLSALCKHLDNLWEEHRGSVVLFAWMQFLKEETLAYLNIVSPFELKIGSQKKVQRRTAQASPNTELDFGGAAGSDVDQEEIVDERAVQDVESLSNLIQEILDFDQAQQIKCFNSKLFLCSICFCEKLGSECMYFLECRHVYCKACLKDYFEIQIRDGQVQCLNCPEPKCPSVATPGQVKELVEAELFARYDRLLLQSSLDLMADVVYCPRPCCQLPVMQEPGCTMGICSSCNFAFCTLCRLTYHGVSPCKVTAEKLMDLRNEYLQADEANKRLLDQRYGKRVIQKALEEMESKEWLEKNSKSCPCCGTPIEKLDGCNKMTCTGCMQYFCWICMGSLSRANPYKHFNDPGSPCFNRLFYAVDVDDDIWEDEVED
B3 was tested, and the binding (F508del-4RK-CFTR [3]) was “binds”.

Read-outs that look alike come from different tables or passages of the source. These are yes or no findings as the source states them, for the method shown. In cells and extracts the contact can be indirect. A yes stands for co-enrichment or nearness to the bait. Other partners may have been found.
